Measured values published in paper PMC4359135.

Amino acid sequences for entries named in this document (tags omitted). A change or cut given only in a name is not applied to a line headed by its entry.
UniProt Q9BST9: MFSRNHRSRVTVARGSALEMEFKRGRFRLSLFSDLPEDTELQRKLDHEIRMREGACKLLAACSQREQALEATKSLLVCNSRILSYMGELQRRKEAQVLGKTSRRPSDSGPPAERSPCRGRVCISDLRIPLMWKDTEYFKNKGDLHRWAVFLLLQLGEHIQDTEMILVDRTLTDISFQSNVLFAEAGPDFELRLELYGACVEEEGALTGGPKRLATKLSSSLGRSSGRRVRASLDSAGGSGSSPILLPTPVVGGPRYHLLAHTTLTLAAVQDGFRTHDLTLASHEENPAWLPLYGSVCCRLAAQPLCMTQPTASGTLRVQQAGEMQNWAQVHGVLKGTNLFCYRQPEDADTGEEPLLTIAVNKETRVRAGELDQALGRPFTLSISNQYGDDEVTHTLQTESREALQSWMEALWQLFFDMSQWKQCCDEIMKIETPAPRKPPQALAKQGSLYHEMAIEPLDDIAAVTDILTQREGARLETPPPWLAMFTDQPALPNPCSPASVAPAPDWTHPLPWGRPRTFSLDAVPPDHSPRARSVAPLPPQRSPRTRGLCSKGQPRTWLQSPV
UniProt P61586: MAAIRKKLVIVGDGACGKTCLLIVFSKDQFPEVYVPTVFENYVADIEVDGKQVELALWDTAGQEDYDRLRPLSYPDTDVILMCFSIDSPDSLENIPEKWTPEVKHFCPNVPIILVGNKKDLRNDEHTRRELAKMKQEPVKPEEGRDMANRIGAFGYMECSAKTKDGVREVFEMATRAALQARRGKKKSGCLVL

Molecular target: GST-Rhotekin-Rho-binding-domain (UniProt Q9BST9)
Assay: pull-down; GST fusion proteins as baits; clarified CFBE41o- lysates in LIL buffer (25 mM Tris-HCl pH 7.5, 150 mM NaCl, 5 mM MgCl2, 1% NP-40, 1 mM DTT, 5% glycerol); GTPases loaded with GTP-γS (10 mM EDTA, 0.1 mM GTP-γS, 15 min at 30°C, then 60 mM MgCl2); cells treated before lysis with 10 μM ML141 or 1% DMSO for 30 min; Western blot; only the target purified

RhoA (from UniProt P61586 1-193)
binding: binds

These are yes or no findings as the source states them, for the method shown. In cells and extracts the contact can be indirect. A result given as binding can be weak or reduced; the word gives no strength.
